Source: PubChem BioAssay AID540276 (National Center for Advancing Translational Sciences (NCATS), 2011)
“And” between values parts separate entries of the source, which are not always exact repeats. Equal values may be shown once. Among all 300,000 compounds or so, about 5,400 (1.8%) were called active. Inconclusive results, whose numbers are uncertain, are shown with a selection of clear calls. The call rests on the fitted dose curve; tested in HEK293 cells. Where the call is inconclusive, the potency comes from a doubtful curve fit.

assay: qHTS for inhibitors of binding or entry into cells for Marburg Virus; settings: Marburg virus pseudotyped entry inhibition, cell reporter; activity change, negative = inhibition: at 37.8 µM (top of the series) unless noted
On the % scale 0 is the no-effect control and ±100 the full control effect; potency means the concentration at half of the fitted maximal effect.

Structure (SMILES)	Potency	activity change, negative = inhibition
O=C(NC(Cc1ccccc1)c1nc2ccccc2[nH]1)c1cccc([N+](=O)[O-])c1 (stereo unspecified)	inconclusive: 16.4 µM [inhibitor, partial curve, poor fit]	
O=C(Nc1ccc(CN2CCCCC2)cc1)c1ccc(Br)o1		inactive: -3.67%
CCc1ccc(OC)c(S(=O)(=O)Nc2ccccc2C)c1		inactive: -3.05%
COc1ccccc1/C=C/C(=O)NCC(=O)N1CCC(N(C)C2CCCC2)CC1		inactive: -4.58%
CCN1CCN(c2ccc(S(=O)(=O)N3CCOCC3)cc2NC(=O)c2ccccc2OC(F)F)CC1	inconclusive: 35.5 µM [inhibitor, single point]	
O=C(c1ccco1)N(CCCN1CCOCC1)c1nc(-c2ccc(Cl)cc2)cs1	inactive and inconclusive: 23.1 µM [inhibitor, partial curve, poor fit]	
Cn1cc(C(=O)C(=O)N2CCCCC2)c2ccccc21		inactive: -13% [at 46.1 µM]
COc1ccc(-c2nn(-c3ccccc3)cc2C2NC(=O)NC(C)=C2C(=O)OC(C)C)cc1Cl (stereo unspecified)		inactive: 16.9% [at 46.1 µM]
O=C(Nc1ccc2c(c1)OC1(CCCC1)O2)C1CC1		inactive: 4.61%
COc1ccc(C(=O)NC(=S)NC(C)(C)C)cc1Br		inactive: -3.51%
CC(CC(=O)N1CCN(S(=O)(=O)c2ccc(Cl)cc2)CC1)n1cncn1 (stereo unspecified)		inactive: 15.5% [at 46.1 µM]
Cc1ccc(Cl)cc1N1CCN(S(=O)(=O)c2cc(Br)cc3c2N(C(=O)C2CC2)CC3)CC1		inactive: 13.3% [at 46.1 µM]
CN(c1ccc(C(=O)Nc2ccc(S(=O)(=O)N3CCCC3)cc2)cc1)S(C)(=O)=O	inconclusive: 10 µM [inhibitor, partial curve, poor fit]	
CCOC(=O)c1c(C)[nH]c(N=Nc2ccccc2Cl)c1C		inactive: 7.48%
CCCC(=O)NC(=S)Nc1ccc(N2CCOCC2)c(Cl)c1		inactive: 9.69%
CCN(CC)S(=O)(=O)c1cc(C(=O)NC2=NCCS2)ccc1Cl		inactive: 12.5%
CC1(C)C(=O)OC(c2c3ccccc3cc3ccccc23)C(C)(C)C1=O (stereo unspecified)	inconclusive: 22.4 µM [inhibitor, single point]	
O=C(Cn1c(-c2ccccc2)noc1=O)Nc1ccc(N2CCCCCC2)cc1	inconclusive: 23.1 µM [inhibitor, single point]	
O=C(Nc1nccs1)c1ccc(CSc2nnnn2-c2ccccc2)cc1	inconclusive: 20.6 µM [inhibitor, single point]	
C=C(C)C1CC=C(C)/C(=N/NC(=O)c2ccc(NC(=O)c3cccc(C)c3)cc2)C1 (stereo unspecified)		inactive: -3.68%
c1ccc(C2CCC3(CC2)Oc2ccccc2C2CC(c4cccnc4)=NN23)cc1 (stereo unspecified)		inactive: -4.05%
C[C@]12CC[C@H](O)CC1=CC[C@@H]1[C@@H]2CC[C@]2(C)C(=O)CC[C@@H]12	inconclusive: 0.0891 µM [inhibitor, full curve]	
CN1CCN(C(=O)c2ccc(Cl)cc2)CC1		inactive: -14.6%
COc1ccccc1OCc1nc(C#N)c(NCc2ccc(C)cc2)o1		inactive: -22.6% [at 46.1 µM]
COC(=O)c1ccccc1NC(=O)c1ccc(NC(=O)C2CCCO2)cc1 (stereo unspecified)		inactive: -14.4%
O=C(CN1CCCC1)Nc1nc(-c2ccc3c(c2)CCN3C(=O)c2ccccc2F)cs1	inconclusive: 29.1 µM [inhibitor, single point]	

Structure (SMILES)	Potency	activity change, negative = inhibition
COc1ccc2[nH]cc(/C=C/C(=O)c3ccccc3)c2c1	inconclusive: 1.26 µM [activator, partial curve, poor fit]	
N#Cc1c(-c2ccccc2Cl)cc(-c2ccccc2)nc1Br	inconclusive: 0.651 µM [activator, single point]	
CN(C)S(=O)(=O)c1cccc(N=C2SCCN2Cc2ccccc2)c1	inconclusive: 35.5 µM [inhibitor, single point]	
O=C(OCC(=O)N1CCCCC1)c1cc2ccccc2cc1O	inconclusive: 1.26 µM [inhibitor, single point]	
COc1cccc(Oc2cnc(N)nc2-c2ccc(OC)cc2O)c1	inconclusive: 0.259 µM [inhibitor, full curve, poor fit]	
Cc1ccc(NC(=O)CSc2nnc(C)n2CC2CCCO2)cc1 (stereo unspecified)		inactive: 6.01%
COC(=O)c1c(NC(=O)Cc2coc3ccc(C(C)C)cc23)sc2c1CCC2	inconclusive: 5.62 µM [inhibitor, single point]	
N#Cc1c(N)sc2c1CCN(CCc1ccccc1)C2		inactive: 9.59%
C=CCn1c(-c2ccc(OC)cc2)nc2nc3ccccc3nc21	inconclusive: 10.3 µM [activator, partial curve]	
CN(C)S(=O)(=O)N1CCN(c2ccc([N+](=O)[O-])c(N3CCOCC3)c2)CC1	inconclusive: 2.24 µM [inhibitor, full curve]	
CC(=NNC(=S)Nc1ccc(C)cc1)c1ccccn1	inconclusive: 0.1 µM [inhibitor, full curve, poor fit]	
COC(=O)c1ccc(C(=O)Nc2nc3cc(N)c(C)cc3s2)cc1		inactive: -10.9% [at 46.1 µM]
CN(Cc1nccn1C)C(=O)CCc1nnc(CCC2CCCCC2)o1		inactive: 26.8% [at 46.1 µM]
c1csc(-c2cnc3ccccc3n2)c1	inconclusive: 2.31 µM [activator, full curve, poor fit]	
N=C1/C(=C/c2cccn2CCOc2ccccc2)C(=O)N=C2SC=C(c3ccccc3)N12	inconclusive: 5.62 µM [inhibitor, partial curve]	
CCCCOc1ccc(C2=CSC3=NCCN23)cc1[N+](=O)[O-]	active: 22.4 µM	
O=C(CCc1ccccc1)N1N=C(c2ccncc2)CC1(O)C(F)(F)F (stereo unspecified)	inconclusive: 0.562 µM [inhibitor, full curve, poor fit]	
CC(C)Oc1ccc(S(=O)(=O)N2CCOCC2)cc1NC(=O)C(C)Oc1ccc(F)cc1 (stereo unspecified)		inactive: -13.3%
Cc1ccc(S(=O)(=O)NCCOc2nc(N3CCOCC3)nc(N3CCOCC3)n2)cc1		inactive: 0.0903%
COc1cc2c(cc1NC(=O)c1cc(-c3ccccn3)nc3ccccc13)oc1ccccc12	inconclusive: 3.98 µM [inhibitor, single point]	
CCCn1c(=N)n(CC(=O)C(C)(C)C)c2ccccc21		inactive: -3.55%
O=c1o[nH]c(-c2ccccc2)c1C=Nc1ccc(Cl)cc1		inactive: 0.99% [at 46.1 µM]
NCCCCCc1nnc(SCc2cccc(Cl)c2)o1		inactive: -21.5%
Cc1ccc(C)c(C(=O)OCC(=O)N(C)c2ccccc2)c1		inactive: -17.2% [at 46.1 µM]
COCCNC(=O)C(=O)N/N=C(\C)CC(=O)Nc1ccc(Cl)cc1Cl	inconclusive: 1.26 µM [inhibitor, single point]	
CC(C)(C)c1cc(CN2CCN(CCO)CC2)cc(C(C)(C)C)c1O		inactive: -0.343%

Structure (SMILES)	Potency	activity change, negative = inhibition
Oc1ccc(Br)cc1/C=N/Nc1nc(N2CCCCC2)nc(N2CCOCC2)n1	active: 2.51 µM	
O=c1oc2c3c(ccc2c2ccccc12)OCN(Cc1ccccc1Cl)C3		inconclusive: 16.3% [activator] [at 46.1 µM]
CN1CCN(S(=O)(=O)c2ccc(Cc3ccc(S(=O)(=O)N4CCN(C)CC4)cc3)cc2)CC1	inconclusive: 12.6 µM [inhibitor, single point]	
COc1ccc(-c2nnc(SCC(=O)N(C)C3CCCCC3)o2)cc1OC		inactive: 2.93% [at 46.1 µM]
COc1cc(-c2nnc(COC(=O)C3c4ccccc4Oc4ccccc43)o2)cc(OC)c1OC	inconclusive: 0.326 µM [inhibitor, partial curve, poor fit]	
COc1ccc(CC(=O)Nc2cccc(/C(C)=N/NC(=O)c3cccc([N+](=O)[O-])c3)c2)cc1	inconclusive: 15.8 µM [inhibitor, single point]	
Cc1cccc(Cc2cnc(NC(=O)c3ccc(C)o3)s2)c1	inconclusive: 35.5 µM [inhibitor, single point]	
CCS(=O)(=O)c1ncc(Cl)c(C(=O)Nc2ccccc2)n1	inconclusive: 4.47 µM [inhibitor, full curve, poor fit]	
COc1ccc2nc(SC)c(C#N)cc2c1	inconclusive: 31.6 µM [activator, single point]	
COc1ccc2nc(Cl)c(C#N)cc2c1		inactive: 1.64% [at 46.1 µM]
O=C(Nc1nc(COc2ccccc2)cs1)C1CCC1		inactive: -29.2%
CCOC(=O)c1oc2c(CN3CCCCC3C)c(O)ccc2c(=O)c1-c1ccc(OC)c(OC)c1 (stereo unspecified)	inactive	
CCc1cccc(NC(=O)CN(c2ccc(OC)cc2)S(=O)(=O)c2c(C)n[nH]c2C)c1	inconclusive: 0.0517 µM [inhibitor, full curve, poor fit]	
CC1CC(N(C(=O)c2ccco2)c2ccccc2)c2ccccc2N1 (stereo unspecified)	inconclusive: 15.8 µM [inhibitor, single point]	
O=C(CN1C(=O)c2ccccc2C1=O)Nc1ccccc1C(=O)NC1CCCCCC1	inconclusive: 3.16 µM [inhibitor, single point]	
O=c1oc2ccccc2n1Cc1ccccc1		inactive: 2.14% [at 46.1 µM]
CC1CCCN(CC(=O)Nc2ccc(S(=O)(=O)NC3CCCCC3)cc2)C1 (stereo unspecified)	inconclusive: 9.2 µM [inhibitor, single point]	
CCc1cccc(C)c1NC(=S)NCCc1c(C)[nH]c2ccc(C)cc12	inconclusive: 29.1 µM [inhibitor, single point]	
Cc1cccc(Cn2cnc3ccccc32)c1	inconclusive: 7.94 µM [inhibitor, partial curve, poor fit]	
CC[n+]1c(/C=C/Nc2ccccc2)oc2ccccc21	inconclusive: 29.1 µM [inhibitor, single point]	
CN(C)c1ccc(CN2CCCCCC2)cc1		inactive: -0.364%
O=C(Cn1nnc2c(cnn2-c2ccccc2)c1=O)NCc1cccs1	inconclusive: 15.8 µM [inhibitor, partial curve, poor fit]	
CCOc1ccc(/C=N/NC(=O)c2ccc(Cn3cc([N+](=O)[O-])cn3)o2)cc1		inactive: 11.9%
Cc1ccc(N(CC(=O)Nc2cc(C)ccc2C)S(=O)(=O)c2c(C)noc2C)cc1		inactive: -14% [at 46.1 µM]
